Experimental data from PubChem BioAssay AID588590 (National Center for Advancing Translational Sciences (NCATS), 2011).
The whole screen tested about 390,000 compounds, of which about 4,000 (1%) were called active. The shares of active, inactive and inconclusive entries below differ from those in the screen. Calls come from the whole dose curve; as a rule, active = well fitted inhibition curve with a large enough effect; inconclusive = small, poorly fitted or top-dose-only effect, or another doubt; inactive = no such curve, though single readings can be large or run the other way. Where the call is inconclusive, the potency comes from a doubtful curve fit.

The chains behind the UniProt entries cited, without tags or fusion partners. Where a name states a change or a piece, a line headed by the entry shows the natural chain unless it says otherwise.
UniProt Q9UNA4: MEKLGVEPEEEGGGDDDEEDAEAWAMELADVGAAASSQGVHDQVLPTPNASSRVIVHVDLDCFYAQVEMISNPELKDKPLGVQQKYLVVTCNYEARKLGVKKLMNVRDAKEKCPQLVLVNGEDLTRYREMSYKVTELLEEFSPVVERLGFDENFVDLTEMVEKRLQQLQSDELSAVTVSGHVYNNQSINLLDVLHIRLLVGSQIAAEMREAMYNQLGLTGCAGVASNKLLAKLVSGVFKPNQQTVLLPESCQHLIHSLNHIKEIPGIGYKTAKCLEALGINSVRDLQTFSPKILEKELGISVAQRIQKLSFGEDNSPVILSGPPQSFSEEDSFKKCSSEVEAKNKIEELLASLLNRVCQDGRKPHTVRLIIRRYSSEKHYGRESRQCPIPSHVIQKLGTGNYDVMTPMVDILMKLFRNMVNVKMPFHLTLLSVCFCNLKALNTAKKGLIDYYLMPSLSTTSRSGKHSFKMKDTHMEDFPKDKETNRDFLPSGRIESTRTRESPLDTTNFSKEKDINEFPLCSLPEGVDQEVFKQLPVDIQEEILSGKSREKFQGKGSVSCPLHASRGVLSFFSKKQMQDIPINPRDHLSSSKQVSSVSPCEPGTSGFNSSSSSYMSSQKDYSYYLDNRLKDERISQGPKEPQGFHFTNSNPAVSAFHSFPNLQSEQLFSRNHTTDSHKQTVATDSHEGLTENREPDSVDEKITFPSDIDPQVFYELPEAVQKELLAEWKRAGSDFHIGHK

target: DNA polymerase iota (Homo sapiens) (UniProt Q9UNA4); experiment: qHTS for Inhibitors of Polymerase Iota; conditions: Pol iota fluorescent replication assay, 10 min; series mostly up to 115 µM
In short: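 Pol iota at 10 nM preincubated 15 min with compounds at room temperature; reaction started with fluorescent substrate, 50 nM final. Fluorescence read kinetically at 0 and 10 min; buffer-only wells as negative control.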
Potency is the fitted concentration of half-maximal effect.

Potency, inactive:
CC1Cc2cc(/C(O)=C3/C(=O)C(=O)N(CCN4CCOCC4)C3c3ccc([N+](=O)[O-])cc3)ccc2O1 (centres undefined)
Cc1ccc(/C=N/NC(=O)c2cc3c(s2)CCCC3)o1
CCOc1ccc(OCC)c(NC(=O)CCc2nc3cccnc3n2Cc2cccs2)c1
COCCN(C(=O)c1cc(CN2C(=O)c3ccccc3C2=O)ccc1OC)c1c(N)n(CC(C)C)c(=O)[nH]c1=O
Cc1cccc(Cc2c(C)nc3nc(SCc4ccccc4Cl)nn3c2C)c1
CCOC(=O)c1cccc(NC(=O)CC2C(=O)N(c3ccc(C)cc3)C(=O)N2Cc2cccc(OC)c2)c1 (centres undefined)
COc1cc(Cl)c(C)cc1NC(=O)CSc1nc2c(c(=O)[nH]1)CCCC2
COC(=O)N1CCCc2cc(S(=O)(=O)N3CCN(c4ccccc4)CC3)ccc21
COC(=O)c1ccccc1NC(=O)c1cc(C)nc2c1c(C)nn2-c1ccc(C)cc1
CCCCN(C)C(=O)c1nc2ccccn2c1CN1CCC[C@H]1C(=O)OC
COc1ccc2c(c1)c1c(c(=O)n(-c3ccc(OC)c(OC)c3)c(=O)n1CC(=O)N1CCCC1)n2C
CCN(CC(=O)Nc1c(F)cccc1F)C(=O)CNC(=O)c1cccs1
CCCCn1c(NC(=O)c2ccco2)c(S(=O)(=O)c2ccc(C)cc2)c2nc3ccccc3nc21
Cc1cc(C(=O)Nc2nc(-c3ccccn3)cs2)ccc1[N+](=O)[O-]
Fc1ccccc1COc1ccc2ccccc2c1CNc1nn[nH]n1
Cc1ccc(-c2nc3ncccc3o2)cc1NC(=O)c1ccc([N+](=O)[O-])o1
Cc1ccc(C2C(C#N)=C(N)Oc3cc4c(cc32)OCO4)cc1 (centres undefined)
Cn1cccc1-c1cc2n(n1)CCC(=O)N2CCCC(=O)NCc1ccc(F)cc1
COC(=O)CNC(=O)N1CCN(S(=O)(=O)c2ccc3c(ccn3C)c2)CC1
Cc1cnc(C(=O)OCC(=O)c2ccc(C)s2)cn1
NC(=O)c1c(NC(=O)c2ccc(F)cc2)sc2c1CCC2
Cc1ccccc1C(=O)Nc1ccccc1C(=O)N1CCC(C)CC1
CC1(C)c2[nH]c3ccccc3c2C[C@@H]2C(=O)N(c3ccc(F)cc3F)C(=O)N21
COC(=O)CC1=NN(c2ccccc2)C(=O)/C1=C\c1ccc(OC)cc1
Cn1nccc1NC(=O)COCC(=O)O

Potency, active:
Cn1c(NC(=O)c2ccc(F)cc2)nc2ccccc21 89.1 µM
COC1=C/C(=C/c2c(N)n3nc(-c4ccc(C)cc4)sc3nc2=O)C=CC1=O 14.1 µM
S=C(Nc1ccc2nsnc2c1)N1CCCCC1 3.55 µM
O=C(COC(=O)c1c2c(nc3ccccc13)/C(=C/c1ccco1)CC2)NC1CCCC1 12.6 µM
CCOc1ccc(NC(=O)c2ccc(NC(=O)COC(=O)c3ccc(NC(=O)CC#N)cc3)cc2)cc1 8.91 µM

Potency, inconclusive:
O=C(c1ccc(N2CCCCS2(=O)=O)cc1)N1CCN(c2ccccc2F)CC1 79.4 µM [inhibitor, single point]
Cc1cc(=O)[nH]c(SCC(=O)NN(c2ccccc2)c2ccccc2)n1 89.1 µM [inhibitor, single point]
CC(=O)c1sc(NC(=O)c2ccc(COc3ccccc3Cl)o2)nc1C 44.7 µM [inhibitor, single point]
CCCCn1c(SCC(N)=O)nc2sc3c(c2c1=O)CCC3 50.1 µM [inhibitor, partial curve, poor fit]
CCC1(C)NC(=O)N(CC(=O)Nc2sc3c(c2C(N)=O)CCC3)C1=O (centres undefined) 15.8 µM [inhibitor, full curve, poor fit]
O=C(O)CC1(Cc2nc(-c3cccs3)no2)CCCC1 28.2 µM [inhibitor, full curve, poor fit]
COc1cc2c3c(n(C)c(=O)c2cc1OC)-c1cc2c(cc1C3=O)OCO2 89.1 µM [inhibitor, partial curve, poor fit]
O=C(CCN1C(=O)/C(=C/c2ccccc2Cl)SC1=S)NCCCN1CCOCC1 56.2 µM [inhibitor, single point]
N#Cc1c(NC(=O)COC(=O)c2nccnc2N)sc2c1CCCC2 25.1 µM [inhibitor, partial curve, poor fit]
Fc1cccc(Cl)c1CNCCSc1nnnn1-c1ccccc1 14.1 µM [inhibitor, partial curve, poor fit]
CCOc1nc(-c2ccccc2)ccc1-c1noc(-c2cccnc2)n1 89.1 µM [inhibitor, partial curve, poor fit]
Cc1cc(Cn2nc(-c3ccccc3)cc2C(=O)NCc2cccc(C(F)(F)F)c2)on1 39.8 µM [inhibitor, single point]
CC(=O)Nc1cccc(NC(=O)CSc2nnc(Cc3cccn3C)n2CCc2ccccc2)c1 112 µM [inhibitor, partial curve, poor fit]
CCc1cc(C(=O)Cc2nc3ccccc3s2)c(O)cc1OCC(=O)O 25.1 µM [inhibitor, partial curve, poor fit]
Cc1occc1C(=O)N1CCN(c2ccc([N+](=O)[O-])cc2)CC1 89.1 µM [inhibitor, single point]
Cc1onc(-c2c(F)cccc2Cl)c1C(=O)OCC(=O)NCc1ccco1 35.5 µM [inhibitor, single point]
CCCCNC(=O)CN1C(=O)COc2ccc(S(=O)(=O)N3CCCCCC3)cc21 8.91 µM [inhibitor, full curve, poor fit]
CCOC(=O)c1[nH]c(C)c(CCC(=O)Nc2cccc(SC)c2)c1C 100 µM [inhibitor, partial curve, poor fit]
CC(=O)Nc1nc(=S)ss1 35.5 µM [inhibitor, single point]
CCCCNC(=S)Nc1ccc(OC)nc1 56.2 µM [inhibitor, partial curve, poor fit]
C=CCOC(=O)C1=C(C)NC(SCC(=O)OCC)=C(C#N)C1c1ccc(C)cc1 (centres undefined) 12.6 µM [inhibitor, partial curve, poor fit]
O=C(CCCc1c[nH]c2ccccc12)N1CCN(c2ccc(N3CCOCC3)nn2)CC1 0.631 µM [inhibitor, full curve, poor fit]
Cc1ccc(NC(=O)CN2C(=O)c3ccccc3Sc3ccc(C(=O)N4CCOCC4)cc32)c(Cl)c1 79.4 µM [inhibitor, single point]
Oc1ccc(C(=S)N2CCCCCC2)cc1 25.1 µM [inhibitor, partial curve, poor fit]
C=CCN1C=C2C(=O)C(C)(OC(=O)c3ccc(OC)cc3)C(=O)C(c3ccco3)=C2C=C1CCCC (centres undefined) 28.2 µM [inhibitor, full curve, poor fit]
COc1cccc(N2CCN(C(=O)c3ccc4nc[nH]c4c3)CC2)c1 35.5 µM [inhibitor, partial curve]
O=C(O)COc1ccc(Br)cc1/C=C1/SC(=O)N(CC(=O)N2CCCC2)C1=O 56.2 µM [inhibitor, partial curve, poor fit]
COC(=O)CCNC(=O)Cc1ccc(S(=O)(=O)N2CCCCC2)s1 25.1 µM [inhibitor, partial curve, poor fit]
CCOc1cccc(-c2nnc3sc(COc4ccc(OC)cc4)nn23)c1 35.5 µM [inhibitor, single point]
Cc1ccc2nc(-c3ccccn3)cc(C(=O)N3CCN(c4ncccn4)CC3)c2c1 89.1 µM [inhibitor, single point]
Cc1cc(Cl)ccc1Oc1cccc(C(=O)/C(C#N)=C/N(C)C)c1 2.82 µM [inhibitor, full curve, poor fit]
Cc1ccc(-c2nc3n(n2)Cc2ccccc2-3)cc1 28.2 µM [inhibitor, partial curve, poor fit]
CCc1nnc(NC(=O)c2ccc(Cl)c(S(=O)(=O)N3CCc4ccccc43)c2)s1 39.8 µM [inhibitor, single point]
O=C(COC(=O)[C@@H]1CC(O)CN1S(=O)(=O)c1ccc2c(c1)OCCO2)NCc1ccc(F)cc1 (some centres undefined) 89.1 µM [inhibitor, single point]
CC(=O)c1ccc(NC(=O)C2C3C=CC(O3)C2C(=O)O)cc1 (centres undefined) 89.1 µM [inhibitor, partial curve, poor fit]
O=c1[nH]c2ccc(Cl)cc2c(-c2ccccc2)c1N1CCOCC1 112 µM [inhibitor, partial curve, poor fit]
Cn1c(CCc2ccc(N)cc2)nc2ccccc21 89.1 µM [inhibitor, single point]
Cc1ccc(C(=O)OCC(=O)Nc2ccccc2N2CCOCC2)cc1 2.82 µM [inhibitor, full curve, poor fit]
Cc1cc(C)nc(NC(=O)NC(=O)c2ccccc2)n1 89.1 µM [inhibitor, single point]

Looked up by structure from the entries so far:
Potency, inconclusive:
CCCCNC(=S)Nc1ccc(OC)nc1 56.2 µM [inhibitor, partial curve, poor fit]
Cc1cc(Cn2nc(-c3ccccc3)cc2C(=O)NCc2cccc(C(F)(F)F)c2)on1 39.8 µM [inhibitor, single point]
